In general, AC50 refers to the concentration at which the activity in the assay is half-maximal.

Each structure is given as a SMILES string. This is one part of the list. Shown are side measurements of this screen, not its main read-out; they come without a call. The list favours compounds with an active or inconclusive main result. Words in brackets tell the shape of the fitted curve; partial curves, single points and poor fits give uncertain potencies.

The experiment in a line: Cell signaling CRE-BLA (Fsk stim). The note with it: CHO CRE-bla reporter (cAMP response element driving beta-lactamase), forskolin EC10, beta-lactamase ratio; measured here: 460 nm blue channel. The procedure, abridged: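 CHO CRE-bla cells, overnight plating in Opti-MEM with 0.5% dialyzed FBS; cpd titration + EC10 NKH 477, 3 h 37 °C; CCF4 2 h RT; ex 405/em 460 vs 530 ratio → %Activity, AC50.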
On to `Cc1ccc(Cn2nnc3c(=O)n(Cc4cc(C)ccc4C)cnc32)cc1`, for which the concentration at half-maximal activity (AC50) is 12.6 µM [rising, single point].
As for `CCN(C(=O)COc1cc(=O)n(CC)c2ccccc12)c1cc(Cl)ccc1OC`, the figure is 12.6 µM [rising, partial curve].
The value for `CCC(=O)N1CCCc2cc(S(=O)(=O)N3CCN(C4CCCCC4)CC3)ccc21` was 0.126 µM [falling, full curve]; that for `O=C(c1cc2nc(C3CC3)cc(C(F)(F)F)n2n1)N1CCCC1` was 12.6 µM [rising, single point].
As for `O=C(NCC1COc2ccccc2O1)C1CCCN(S(=O)(=O)c2cccc3nsnc23)C1` (stereo not drawn), the figure is 0.0631 µM [falling, full curve, poor fit]; as for `CCC(C)(C(=O)NC1CCCC1)N(C(=O)CNC(C)=O)c1ccccc1` (stereo not drawn), 2 µM [falling, partial curve, poor fit].
As to `COc1ccccc1C1C=C(c2ccc(Cl)cc2)Nc2nc(NS(C)(=O)=O)nn21` (stereo not drawn), the AC50 was 20 µM [rising, single point].
The value for `Cc1nc(SCC(=O)Nc2ccc(C)c(F)c2)c2oc3ccccc3c2n1` was 0.631 µM [rising, full curve]; that for `CCOC(=O)c1c(/N=C/N(C)C)sc(C(=O)OC)c1C` was 10 µM [rising, single point].
As for `O=C(Nc1ncc(Br)s1)C(Cc1ccccc1)n1cccc1` (stereo not drawn), the figure is 25.1 µM [falling, single point]; as for `c1ccc2c(c1)Cc1cc3cc4c(cc3nc1-2)OCO4`, 15.8 µM [rising, single point].
The value for `CN(C)C(=O)c1ccc(-c2nc(NCc3cccnc3)c3ccccc3n2)cc1` was 3.16 µM [rising, full curve]; that for `Clc1ccc(OCc2nn3c(-c4ccco4)nnc3s2)c(Cl)c1` was 25.1 µM [falling, single point].
Take `COc1cccc(NS(=O)(=O)c2ccc3[nH]cc(C(=O)NCCCOC(C)C)c(=O)c3c2)c1`: the AC50 is 0.126 µM [falling, full curve, poor fit].
Turning to `COc1ccc2nc3c(cc2c1)c(NC(=O)c1cccs1)nn3CC(C)C`, the AC50 was 10 µM [rising, partial curve].
As for `CC(C)C1N(c2ccccc2)C(N)=C(C#N)C1(C#N)C#N` (stereo not drawn), the figure is 31.6 µM [falling, partial curve, poor fit].
As for `c1ccc(COc2nsnc2N2CCOCC2)cc1`, the figure is 10 µM [rising, single point].
The value for `Cc1cc(=O)[nH]c2c(C)c(N)ccc12` was 25.1 µM [rising, single point].
Take `CCCCC(=O)NC1(C(F)(F)F)C(=O)N(Cc2ccco2)C(C)=C1C(=O)OC` (stereo not drawn): the AC50 was 0.00316 µM [falling, full curve, poor fit].
The value for `O=c1oc2cc(O)ccc2c2c1CCCC2` was 25.1 µM [rising, single point]; that for `CCOC(=O)c1cnn2c(C(F)(F)F)cc(-c3ccco3)nc12` was 12.6 µM [rising, partial curve]; that for `O=C(CCSCCC(=O)NCCN1CCOCC1)NCCN1CCOCC1` was 0.01 µM [falling, full curve].
With `OCCSc1nc(-c2cccnc2)nc2ccccc12`, the AC50 was 15.8 µM [rising, partial curve, poor fit].
As for `Cc1cccc2cc(CN(Cc3nnnn3Cc3ccco3)C3CCCC3)c3nnnn3c12`, the figure is 10 µM [rising, partial curve]; as for `CC(=O)NCCNc1nc(-c2cccc(NS(C)(=O)=O)c2)nc2ccccc12`, 10 µM [rising, partial curve].
The value for `COc1cc2c(cc1OC)C1=C(C#N)CN(C3CCCCC3)CN1CC2` was 0.794 µM [rising, full curve]; that for `Cc1ccc(-c2c3c(=O)n(C)c(=O)n(C)c3c3c(C)cc(C)nn23)cc1` was 0.316 µM [falling, partial curve].
As for `COc1cc(CNc2ccc3c(c2)CCC3)cc(OC)c1O`, the figure is 0.00316 µM [falling, full curve, poor fit]; as for `O=C(NC1CCCCC1)C(c1ccccc1F)N(Cc1ccco1)C(=O)Cn1nnc2ccccc21` (stereo not drawn), 25.1 µM [rising, single point].
With `COc1ccc(-c2nc3cnc(N(C)C)nc3n(C)c2=O)cc1`, the AC50 is 2.51 µM [rising, full curve].
In the case of `O=S(=O)(c1ccc(F)cc1)N1CCN(c2ncnc3c2cnn3-c2ccccc2)CC1`, the AC50 is 0.126 µM [falling, partial curve, poor fit].
The value for `COCC(=O)N1CCC2(CCCN(c3ccc(-c4ccccc4)cc3)C2)CC1` was 12.6 µM [rising, single point].
The value for `O=C(OCC(=O)N1CCCCCC1)c1n[nH]c(=O)c2ccccc12` was 0.1 µM [falling, single point]; that for `Cc1nc2ccccn2c1C(=O)c1ccccc1` was 2.51 µM [falling, partial curve].
The value for `COc1ccccc1-c1cc(C(F)(F)F)nc(S(=O)(=O)CCCC(=O)N2CCCCC2C)n1` (stereo not drawn) was 12.6 µM [falling, partial curve]; that for `Cc1cc(C)n2nc(SCC(=O)c3cc(C)n(-c4cc(C)on4)c3C)nc2n1` was 12.6 µM [rising, partial curve].
For the compound `O=C(Nc1cccc(Cl)c1)c1ccc2c(=O)n3c(nc2c1)CCCCC3`, the AC50 was 1.58 µM [rising, partial curve].
As for `Cc1cc(-c2ccccc2)n(-c2ccc(C(=O)N3CCN(c4ncccn4)CC3)cc2)n1`, the AC50 was 12.6 µM [rising, single point].
The value for `CCC(=O)c1cc(F)c(N2CCN(S(=O)(=O)c3ccccc3)CC2)cc1C` was 3.98 µM [falling, partial curve].
As for `O=C(O)c1cc(S(=O)(=O)N2CCCC2)ccc1Br`, the figure is 1 µM [rising, single point]; as for `COc1ccc(Cn2c(C3CC3)nc3ccc(NC(C)=O)cc3c2=O)cc1`, 5.01 µM [rising, partial curve].
The value for `CC1Cc2ccccc2N1C(=O)c1cc2c(=O)n3ccccc3nc2n1C` (stereo not drawn) was 15.8 µM [rising, partial curve]; that for `COC(=O)[C@@]1(Cc2ccc(OC)cc2)[C@H]2c3cc(C(=O)N4CCCC4)n(CCF)c3C[C@H]2CN1C(=O)c1ccccc1` was 0.1 µM [rising, full curve].
Take `O=c1[nH]c2ccccc2c2ccccc12`: the AC50 is 25.1 µM [rising, partial curve].
The value for `CCC1(CC)NC(=O)N(CC(=O)OCC(=O)Nc2cc(C)ccc2C)C1=O` was 3.98 µM [falling, single point].
As for `CCS(=O)(=O)Nc1ccc(-c2ccc(NS(=O)(=O)CC)c(OC)c2)cc1OC`, the figure is 12.6 µM [rising, partial curve]; as for `CC1=C/C(=C\c2ccc3c(c2)OCO3)C(=O)S1`, 0.1 µM [falling, full curve, poor fit]; as for `CC(=O)N1CCN(c2ccc(Oc3ncnc4sccc34)cc2)CC1`, 5.01 µM [falling, single point].
The value for `COc1cc2c(cc1OC)CN(C(=O)CSc1nnc3scc(-c4ccccc4)n13)CC2` was 10 µM [rising, partial curve]; that for `CC1(C)CC(=O)C2=C(C1)OC(N)=C(C#N)C2c1ccccc1` (stereo not drawn) was 0.794 µM [falling, single point]; that for `Cc1cccc(OCc2nnc(SCc3cc(=O)n4cc(Br)ccc4n3)o2)c1` was 10 µM [rising, partial curve].
Take `C=C[C@H](N)CCC(=O)O`: the AC50 was 31.6 µM [falling, single point].
Consider `CCOC(=O)c1sc(NC(=O)c2c(C)nn(Cc3ccccc3)c2C)cc1C`, for which the AC50 was 10 µM [falling, partial curve].
The value for `CCc1c(C)c(C#N)c2nc3ccccc3n2c1N(C)C` was 2.51 µM [rising, full curve]; that for `Cc1nonc1NC(=O)Nc1cccnc1` was 0.0126 µM [falling, full curve, poor fit]; that for `O=C(Nc1ccc(-c2noc(-c3cccs3)n2)cc1)c1cccnc1` was 20 µM [falling, single point].
In the case of `COC(=O)c1c(N)c2ccccc2[nH]c1=O`, the AC50 is 25.1 µM [rising, single point].
As for `Cc1cc(C)cc(C(=O)N(C)[C@H](Cc2ccc(-c3ccccc3)cc2)C(=O)N[C@@H](Cc2c[nH]c3ccccc23)C(=O)O)c1`, the figure is 31.6 µM [falling, single point]; as for `CC1CCCC(C)N1C(=O)C1CC(c2ccc(F)cc2)=NO1` (stereo not drawn), 0.0794 µM [falling, full curve]; as for `COc1ccc(CCNC(=O)CSc2nnc(-c3ccccc3)o2)cc1OC`, 0.501 µM [falling, single point].
The value for `COc1ccc(N2CCN(C(=O)C(CCSC)N=C3NS(=O)(=O)c4ccccc43)CC2)cc1` (stereo not drawn) was 5.01 µM [falling, single point]; that for `CC1(C(=O)O)CCC(C(=O)N2CCOCC2)C1(C)C` (stereo not drawn) was 0.126 µM [falling, single point].
The value for `C=CCn1c(NC(=O)c2ccc(C)cc2)c(C#N)sc1=N` was 25.1 µM [rising, single point].
With `O=c1oc2ccccc2n1CSC1=NCCS1`, the AC50 is 10 µM [falling, single point].
Take `O=C1Nc2ccc(S(=O)(=O)N3CCOCC3)c3cccc1c23`: the AC50 was 12.6 µM [rising, single point].
As for `CCCCOC(=O)C1=C(C)Nc2ncnn2C1c1cccc(OC)c1` (stereo not drawn), the figure is 10 µM [rising, partial curve]; as for `Cc1cc2ccccc2c(=O)n1CC(=O)NCC(=O)N1CCCC1`, 3.98 µM [falling, full curve].
As for `CCOC(=O)CC(=O)CSc1ccc2nnc(-c3ccc(F)cc3)n2n1`, the figure is 10 µM [rising, single point].
